Reference: publication PMC12248590
These are yes or no findings as the source states them, for the method shown. In cells and extracts the contact can be indirect. Some entries that bind do so weakly or less than the wild type.

Amino acid sequences for entries named in this document (tags omitted). Residues count along the entry.
UniProt P30405, residues 30-207: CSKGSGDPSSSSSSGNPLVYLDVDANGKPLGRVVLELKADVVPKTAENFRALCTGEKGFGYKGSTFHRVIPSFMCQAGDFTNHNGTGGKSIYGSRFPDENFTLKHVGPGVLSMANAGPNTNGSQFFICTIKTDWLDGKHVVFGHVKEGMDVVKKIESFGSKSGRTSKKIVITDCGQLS

Target: T1, hexokinase 2 (human (endogenous in Beas-2B)) (UniProt P52789)
T1 sequence: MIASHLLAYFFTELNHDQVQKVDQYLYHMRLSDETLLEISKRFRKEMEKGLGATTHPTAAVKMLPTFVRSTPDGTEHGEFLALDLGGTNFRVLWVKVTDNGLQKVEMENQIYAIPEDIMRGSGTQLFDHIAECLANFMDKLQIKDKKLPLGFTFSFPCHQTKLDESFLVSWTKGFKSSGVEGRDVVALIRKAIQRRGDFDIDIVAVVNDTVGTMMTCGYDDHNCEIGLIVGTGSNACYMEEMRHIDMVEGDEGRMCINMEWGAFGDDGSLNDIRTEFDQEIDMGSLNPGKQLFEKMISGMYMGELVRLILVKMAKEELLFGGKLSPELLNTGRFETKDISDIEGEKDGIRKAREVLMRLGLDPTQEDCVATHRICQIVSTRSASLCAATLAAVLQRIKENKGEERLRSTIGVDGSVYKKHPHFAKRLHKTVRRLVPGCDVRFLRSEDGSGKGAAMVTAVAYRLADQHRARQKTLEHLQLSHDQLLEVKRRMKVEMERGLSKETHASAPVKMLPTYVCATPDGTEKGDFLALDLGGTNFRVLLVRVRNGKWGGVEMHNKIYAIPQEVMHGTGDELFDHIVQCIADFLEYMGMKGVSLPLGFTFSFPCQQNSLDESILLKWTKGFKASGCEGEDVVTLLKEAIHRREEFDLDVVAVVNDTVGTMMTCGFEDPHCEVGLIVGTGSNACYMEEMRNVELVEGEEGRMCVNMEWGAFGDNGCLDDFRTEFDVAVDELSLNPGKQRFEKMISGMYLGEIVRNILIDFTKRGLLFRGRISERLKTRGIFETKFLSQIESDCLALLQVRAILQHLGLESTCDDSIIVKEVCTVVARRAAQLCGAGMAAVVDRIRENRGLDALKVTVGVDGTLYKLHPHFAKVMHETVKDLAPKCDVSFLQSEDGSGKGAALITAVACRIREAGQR
Test: co-IP; Beas-2B cells exposed to IL-1β (20 ng/mL) for 48 h, NP-40 lysis buffer; pre-cleared lysate incubated overnight at 4 °C with anti-HK2 or anti-IgG, protein G magnetic beads; eluate analysed by western blotting

peptidylprolyl isomerase F (from UniProt P30405 30-207) (enzyme)
binding: binds
